{"source": "PubChem BioAssay AID504808 (Drosophila RNAi Screening Center, 2011)", "screen": "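Fly genes required to hold E2F transcription in check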 (primary screen)", "cells": "Drosophila S2 cells", "reagent": "long dsRNA against Drosophila genes", "read-out": "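Firefly luciferase driven by E2F sites, normalised to Renilla luciferase on the same minimal promoter, measured by plate reader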", "scale": "E2F firefly: higher = more E2F reporter activity; Renilla normaliser: higher = more normaliser reporter signal", "call rule": "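Called active if the normalised E2F reporter went up by over 50%; the cutoff is arbitrary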", "note": "The screen tested about 21,000 reagents; shown is a random part of those that have a named target and a result. Of all reagents, 18 (0.084%) got an active call. 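Raw counts without plate normalisation, one of two replicates; the ratio scores behind the calls were not deposited.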 Names joined by + are all predicted targets of the reagent. Not stated in the record: the amount of reagent, the time to read-out."}
{"gene knocked down": "CG5969", "dsRNA": "DRSC11789", "E2F firefly, rep 1": 71947, "Renilla normaliser, rep 1": 3101, "activity call": "inactive"}
{"gene knocked down": "CG15530", "dsRNA": "DRSC15067", "E2F firefly, rep 1": 1.26e5, "Renilla normaliser, rep 1": 6715, "activity call": "inactive"}
{"gene knocked down": "CG42527 (retired record) + Hr4", "dsRNA": "DRSC18495", "E2F firefly, rep 1": 1.25e5, "Renilla normaliser, rep 1": 6693, "activity call": "inactive"}
{"gene knocked down": "l(2)41Ab (lethal (2) 41Ab)", "dsRNA": "DRSC21007", "E2F firefly, rep 1": 87019, "Renilla normaliser, rep 1": 2754, "activity call": "inactive"}
{"gene knocked down": "mms4 (Methyl methanesulfonate sensitivity 4)", "dsRNA": "DRSC06249", "E2F firefly, rep 1": 1.39e5, "Renilla normaliser, rep 1": 5006, "activity call": "inactive"}
{"gene knocked down": "Tsp47F (Tetraspanin 47F)", "dsRNA": "DRSC07325", "E2F firefly, rep 1": 87644, "Renilla normaliser, rep 1": 4238, "activity call": "inactive"}
{"gene knocked down": "Agpat3 (1-Acylglycerol-3-phosphate O-acyltransferase 3)", "dsRNA": "DRSC10445", "E2F firefly, rep 1": 74870, "Renilla normaliser, rep 1": 3380, "activity call": "inactive"}
{"gene knocked down": "CG11811", "dsRNA": "DRSC09862", "E2F firefly, rep 1": 1.24e5, "Renilla normaliser, rep 1": 6739, "activity call": "inactive"}
{"gene knocked down": "Ets21C (Ets at 21C)", "dsRNA": "DRSC00751", "E2F firefly, rep 1": 1.84e5, "Renilla normaliser, rep 1": 6565, "activity call": "inactive"}
{"gene knocked down": "Lasp", "dsRNA": "DRSC10379", "E2F firefly, rep 1": 1.60e5, "Renilla normaliser, rep 1": 7530, "activity call": "inactive"}
{"gene knocked down": "Gbp1 (Growth-blocking peptide 1)", "dsRNA": "DRSC06592", "E2F firefly, rep 1": 1.65e5, "Renilla normaliser, rep 1": 5317, "activity call": "inactive"}
{"gene knocked down": "CG2187", "dsRNA": "DRSC15425", "E2F firefly, rep 1": 55644, "Renilla normaliser, rep 1": 3377, "activity call": "inactive"}
{"gene knocked down": "CG13428", "dsRNA": "DRSC06390", "E2F firefly, rep 1": 1.35e5, "Renilla normaliser, rep 1": 4295, "activity call": "inactive"}
{"gene knocked down": "CG17059", "dsRNA": "DRSC06654", "E2F firefly, rep 1": 1.01e5, "Renilla normaliser, rep 1": 4137, "activity call": "inactive"}
{"gene knocked down": "Dred (Dctn1-related)", "dsRNA": "DRSC11057", "E2F firefly, rep 1": 1.29e5, "Renilla normaliser, rep 1": 5654, "activity call": "inactive"}
{"gene knocked down": "Dred (Dctn1-related)", "dsRNA": "DRSC11059", "E2F firefly, rep 1": 56225, "Renilla normaliser, rep 1": 3452, "activity call": "inactive"}
{"gene knocked down": "D1 (D1 chromosomal protein)", "dsRNA": "DRSC16638", "E2F firefly, rep 1": 69619, "Renilla normaliser, rep 1": 3378, "activity call": "inactive"}
{"gene knocked down": "atl (atlastin)", "dsRNA": "DRSC16089", "E2F firefly, rep 1": 65317, "Renilla normaliser, rep 1": 3928, "activity call": "inactive"}

Part of the list above, reformatted.
mms4 (Methyl methanesulfonate sensitivity 4) [DRSC06249]
- E2F firefly, rep 1: 1.39e5
- Renilla normaliser, rep 1: 5006
- activity call: inactive

Tsp47F (Tetraspanin 47F) [DRSC07325]
- E2F firefly, rep 1: 87644
- Renilla normaliser, rep 1: 4238
- activity call: inactive

Agpat3 (1-Acylglycerol-3-phosphate O-acyltransferase 3) [DRSC10445]
- E2F firefly, rep 1: 74870
- Renilla normaliser, rep 1: 3380
- activity call: inactive

CG11811 [DRSC09862]
- E2F firefly, rep 1: 1.24e5
- Renilla normaliser, rep 1: 6739
- activity call: inactive

Ets21C (Ets at 21C) [DRSC00751]
- E2F firefly, rep 1: 1.84e5
- Renilla normaliser, rep 1: 6565
- activity call: inactive

Lasp [DRSC10379]
- E2F firefly, rep 1: 1.60e5
- Renilla normaliser, rep 1: 7530
- activity call: inactive

Continued:
{"gene knocked down": "Prx1 (Peroxiredoxin 1)", "dsRNA": "DRSC10741", "E2F firefly, rep 1": 1.57e5, "Renilla normaliser, rep 1": 8491, "activity call": "inactive"}
{"gene knocked down": "CG8176", "dsRNA": "DRSC16394", "E2F firefly, rep 1": 1.33e5, "Renilla normaliser, rep 1": 5246, "activity call": "inactive"}
{"gene knocked down": "cmet (CENP-meta)", "dsRNA": "DRSC03511", "E2F firefly, rep 1": 1.52e5, "Renilla normaliser, rep 1": 4646, "activity call": "inactive"}
{"gene knocked down": "CG10274", "dsRNA": "DRSC09716", "E2F firefly, rep 1": 68084, "Renilla normaliser, rep 1": 3421, "activity call": "inactive"}
{"gene knocked down": "CG7573", "dsRNA": "DRSC10884", "E2F firefly, rep 1": 1.26e5, "Renilla normaliser, rep 1": 7305, "activity call": "inactive"}
{"gene knocked down": "CG13829", "dsRNA": "DRSC14679", "E2F firefly, rep 1": 1.08e5, "Renilla normaliser, rep 1": 6320, "activity call": "inactive"}
{"gene knocked down": "pico", "dsRNA": "DRSC19430", "E2F firefly, rep 1": 1.42e5, "Renilla normaliser, rep 1": 6580, "activity call": "inactive"}
{"gene knocked down": "CG42319", "dsRNA": "DRSC06645", "E2F firefly, rep 1": 1.06e5, "Renilla normaliser, rep 1": 4598, "activity call": "inactive"}
{"gene knocked down": "CG42319", "dsRNA": "DRSC06646", "E2F firefly, rep 1": 93125, "Renilla normaliser, rep 1": 4025, "activity call": "inactive"}
{"gene knocked down": "Lamtor3 (Late endosomal/lysosomal adaptor, MAPK and MTOR activator 3)", "dsRNA": "DRSC02815", "E2F firefly, rep 1": 1.04e5, "Renilla normaliser, rep 1": 4023, "activity call": "inactive"}
{"gene knocked down": "Nepl8 (Neprilysin-like 8)", "dsRNA": "DRSC02759", "E2F firefly, rep 1": 89443, "Renilla normaliser, rep 1": 3871, "activity call": "inactive"}
{"gene knocked down": "tant (tantalus)", "dsRNA": "DRSC11401", "E2F firefly, rep 1": 86827, "Renilla normaliser, rep 1": 3768, "activity call": "inactive"}
{"gene knocked down": "CG5326", "dsRNA": "DRSC13568", "E2F firefly, rep 1": 84333, "Renilla normaliser, rep 1": 2429, "activity call": "inactive"}
{"gene knocked down": "CG5326", "dsRNA": "DRSC15770", "E2F firefly, rep 1": 57412, "Renilla normaliser, rep 1": 3196, "activity call": "inactive"}
{"gene knocked down": "CG18343", "dsRNA": "DRSC06726", "E2F firefly, rep 1": 91209, "Renilla normaliser, rep 1": 3797, "activity call": "inactive"}
{"gene knocked down": "pira (pirate)", "dsRNA": "DRSC19494", "E2F firefly, rep 1": 1.62e5, "Renilla normaliser, rep 1": 6679, "activity call": "inactive"}
{"gene knocked down": "Tomosyn", "dsRNA": "DRSC19365", "E2F firefly, rep 1": 7638, "Renilla normaliser, rep 1": 748, "activity call": "inactive"}
{"gene knocked down": "Tomosyn", "dsRNA": "DRSC19692", "E2F firefly, rep 1": 8023, "Renilla normaliser, rep 1": 365, "activity call": "inactive"}
{"gene knocked down": "Tomosyn", "dsRNA": "DRSC19782", "E2F firefly, rep 1": 8110, "Renilla normaliser, rep 1": 668, "activity call": "inactive"}
{"gene knocked down": "Tomosyn", "dsRNA": "DRSC19842", "E2F firefly, rep 1": 1.31e5, "Renilla normaliser, rep 1": 4582, "activity call": "inactive"}
